These are yes or no findings as the source states them, for the method shown. Binding calls can cover weak binding; strength is not graded here.
Molecular target: T1, GLD-1 (C. elegans) (UniProt Q17339)
T1 sequence: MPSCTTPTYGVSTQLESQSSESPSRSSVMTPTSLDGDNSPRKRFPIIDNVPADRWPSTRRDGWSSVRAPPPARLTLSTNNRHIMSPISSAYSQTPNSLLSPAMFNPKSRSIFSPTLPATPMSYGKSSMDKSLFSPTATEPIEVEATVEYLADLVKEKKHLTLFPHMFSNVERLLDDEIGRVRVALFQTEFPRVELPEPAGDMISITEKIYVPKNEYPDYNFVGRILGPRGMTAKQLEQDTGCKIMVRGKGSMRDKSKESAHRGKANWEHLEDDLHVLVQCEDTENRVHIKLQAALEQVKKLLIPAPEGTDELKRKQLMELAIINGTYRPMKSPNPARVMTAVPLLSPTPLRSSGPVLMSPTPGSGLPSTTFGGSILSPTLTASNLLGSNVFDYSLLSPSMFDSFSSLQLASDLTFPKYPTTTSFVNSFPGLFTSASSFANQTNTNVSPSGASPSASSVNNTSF
Assay: two-hybrid; yeast two-hybrid; GLD-1 as bait in pAS1 (DNA binding), FOG-2 deletion constructs in pACTII (activation); 20 mM 3-amino-triazole; done in one direction only because FOG-2 auto-activates in pAS1

binding	Substance
no binding	FTR-1 full-length (318 aa) (C. elegans)
no binding	FOG-2 C-terminal deletion of 76 aa (251 aa; essentially all of exon 4 removed) (C. elegans) (domain or fragment)
no binding	FOG-2 C-terminal deletion of 64 aa (263 aa) (C. elegans) (domain or fragment)
binds	FOG-2 full-length (327 aa) (from UniProt Q2YS43)
binds	FOG-2 C-terminal deletion of 28 aa (299 aa) (C. elegans) (domain or fragment)
binds	FOG-2 C-terminal deletion of nine aa (318 aa) (C. elegans) (domain or fragment)

Source: publication PMC539060
